One substance from paper PMC2198942 can be followed below.

By UniProt entry, the sequences of proteins in these tests, tags left out.
UniProt P00546: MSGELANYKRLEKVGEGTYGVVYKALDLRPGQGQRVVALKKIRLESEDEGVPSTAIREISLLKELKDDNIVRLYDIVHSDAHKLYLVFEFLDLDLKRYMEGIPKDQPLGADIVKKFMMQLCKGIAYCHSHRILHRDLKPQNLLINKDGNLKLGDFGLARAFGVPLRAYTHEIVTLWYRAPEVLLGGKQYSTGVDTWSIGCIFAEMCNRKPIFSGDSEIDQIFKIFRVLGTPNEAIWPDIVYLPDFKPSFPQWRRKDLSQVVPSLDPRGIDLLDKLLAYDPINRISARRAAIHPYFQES

Experiment [1] deals with T1, Mbp1 yEmVenus PCA fusion protein (S. cerevisiae) (UniProt P39678).
T1 sequence: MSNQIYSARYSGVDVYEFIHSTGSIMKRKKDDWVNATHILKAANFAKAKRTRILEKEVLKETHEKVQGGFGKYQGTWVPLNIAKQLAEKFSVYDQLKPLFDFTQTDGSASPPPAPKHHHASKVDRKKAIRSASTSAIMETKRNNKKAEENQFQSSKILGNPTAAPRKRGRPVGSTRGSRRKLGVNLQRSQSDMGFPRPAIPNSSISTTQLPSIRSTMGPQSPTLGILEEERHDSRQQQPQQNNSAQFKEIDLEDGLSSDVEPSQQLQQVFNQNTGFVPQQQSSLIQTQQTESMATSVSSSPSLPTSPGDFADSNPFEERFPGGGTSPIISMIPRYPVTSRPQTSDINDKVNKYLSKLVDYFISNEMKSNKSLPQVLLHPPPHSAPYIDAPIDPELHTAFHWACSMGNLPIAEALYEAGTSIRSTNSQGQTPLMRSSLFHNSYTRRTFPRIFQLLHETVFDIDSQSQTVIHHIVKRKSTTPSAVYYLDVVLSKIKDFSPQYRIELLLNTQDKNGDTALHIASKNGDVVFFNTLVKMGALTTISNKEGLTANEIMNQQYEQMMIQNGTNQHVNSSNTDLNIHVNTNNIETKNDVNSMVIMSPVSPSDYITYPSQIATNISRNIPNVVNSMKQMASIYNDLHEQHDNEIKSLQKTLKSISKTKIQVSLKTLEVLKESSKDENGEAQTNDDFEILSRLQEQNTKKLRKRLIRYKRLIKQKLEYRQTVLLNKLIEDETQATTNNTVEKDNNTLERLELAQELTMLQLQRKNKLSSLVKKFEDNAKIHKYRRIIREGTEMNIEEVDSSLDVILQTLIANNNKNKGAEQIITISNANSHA
Put plainly: split reporter; yeast enhanced monomeric Venus (yEmVenus) protein-fragment complementation assay (PCA); VF[1] and VF[2] fusions co-expressed from p413ADHcen and p415ADHcen in wild-type MatA (BY4741) yeast; fluorescence microscopy of living cells at room temperature with image analysis (threshold 225 against autofluorescence of mock cells); the three Cdc28 PCAs with Swi4, Swi6 and Mbp1 were also read in 30 deletion strains and in elm1T551A.

The target in experiment [2] is T2, elm1T551A yEmVenus PCA fusion protein (S. cerevisiae) (UniProt P32801).
T2 sequence: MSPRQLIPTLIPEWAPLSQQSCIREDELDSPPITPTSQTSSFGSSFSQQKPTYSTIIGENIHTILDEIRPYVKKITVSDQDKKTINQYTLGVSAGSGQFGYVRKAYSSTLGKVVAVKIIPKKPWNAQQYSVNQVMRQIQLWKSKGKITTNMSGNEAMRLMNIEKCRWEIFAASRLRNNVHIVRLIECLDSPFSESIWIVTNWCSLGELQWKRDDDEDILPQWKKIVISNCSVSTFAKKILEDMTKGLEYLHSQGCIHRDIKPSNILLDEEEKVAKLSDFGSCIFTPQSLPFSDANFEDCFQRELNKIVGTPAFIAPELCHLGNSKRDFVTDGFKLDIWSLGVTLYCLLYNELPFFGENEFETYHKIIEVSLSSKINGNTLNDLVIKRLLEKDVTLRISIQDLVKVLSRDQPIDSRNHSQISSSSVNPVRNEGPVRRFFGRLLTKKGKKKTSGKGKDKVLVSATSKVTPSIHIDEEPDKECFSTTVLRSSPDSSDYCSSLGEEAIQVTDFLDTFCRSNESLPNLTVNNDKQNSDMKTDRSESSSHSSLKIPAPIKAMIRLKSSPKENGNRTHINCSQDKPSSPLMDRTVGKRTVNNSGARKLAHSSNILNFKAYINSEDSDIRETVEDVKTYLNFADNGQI
The experiment is described as above.

The target of experiment [3] is T3, Swi4-VF[2] fusion protein (S. cerevisiae) (UniProt P25302).
T3 sequence: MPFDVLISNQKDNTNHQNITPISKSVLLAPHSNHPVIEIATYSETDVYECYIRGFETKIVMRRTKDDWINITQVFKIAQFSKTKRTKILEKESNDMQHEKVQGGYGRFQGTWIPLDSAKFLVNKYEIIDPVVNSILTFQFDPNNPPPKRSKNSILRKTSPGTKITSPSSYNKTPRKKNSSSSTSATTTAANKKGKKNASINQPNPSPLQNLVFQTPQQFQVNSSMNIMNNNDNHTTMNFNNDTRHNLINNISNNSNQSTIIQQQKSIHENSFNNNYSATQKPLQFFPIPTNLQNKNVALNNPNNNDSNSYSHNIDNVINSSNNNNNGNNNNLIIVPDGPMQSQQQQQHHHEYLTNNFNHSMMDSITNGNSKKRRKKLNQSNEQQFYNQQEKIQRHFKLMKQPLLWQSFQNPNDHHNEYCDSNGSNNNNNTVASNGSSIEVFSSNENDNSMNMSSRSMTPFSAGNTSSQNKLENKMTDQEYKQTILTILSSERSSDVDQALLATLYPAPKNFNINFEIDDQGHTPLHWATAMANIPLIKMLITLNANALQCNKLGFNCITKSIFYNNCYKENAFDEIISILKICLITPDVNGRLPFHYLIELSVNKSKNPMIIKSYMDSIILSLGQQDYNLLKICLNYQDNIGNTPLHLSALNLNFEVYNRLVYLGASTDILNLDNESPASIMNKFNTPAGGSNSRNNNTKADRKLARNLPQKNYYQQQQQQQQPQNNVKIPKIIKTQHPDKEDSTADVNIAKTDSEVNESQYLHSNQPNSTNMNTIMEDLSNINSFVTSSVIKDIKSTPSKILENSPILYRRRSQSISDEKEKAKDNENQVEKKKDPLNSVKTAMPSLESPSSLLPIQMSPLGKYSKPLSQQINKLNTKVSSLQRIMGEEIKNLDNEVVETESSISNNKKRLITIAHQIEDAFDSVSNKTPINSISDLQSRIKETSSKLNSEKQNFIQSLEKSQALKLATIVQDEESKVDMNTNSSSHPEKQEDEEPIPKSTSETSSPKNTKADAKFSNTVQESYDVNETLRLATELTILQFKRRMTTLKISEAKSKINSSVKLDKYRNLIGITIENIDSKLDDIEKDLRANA
Description: split reporter; yEmVenus PCA as above, read in the Δelm1 deletion strain (BY4741); both fusion proteins detectable by Western blot.

These are yes or no findings as the source states them, for the method shown. Binding seen in cells or lysates may run through a third protein. Some entries that bind do so weakly or less than the wild type. Where a sequence is shown, tags or fusion partners need not be part of it.

Regarding “Cdc28-VF[1] fusion protein (from UniProt P00546 1-298) (enzyme)”, the binding result is recorded as “binds” in experiment [1], “binds” in experiment [2] and “no binding (condition: in the Δelm1 deletion strain)” in experiment [3].
